This note sets out measurements from paper PMC1896016.

Amino acid sequences for entries named in this document (tags omitted).
UniProt Q94545: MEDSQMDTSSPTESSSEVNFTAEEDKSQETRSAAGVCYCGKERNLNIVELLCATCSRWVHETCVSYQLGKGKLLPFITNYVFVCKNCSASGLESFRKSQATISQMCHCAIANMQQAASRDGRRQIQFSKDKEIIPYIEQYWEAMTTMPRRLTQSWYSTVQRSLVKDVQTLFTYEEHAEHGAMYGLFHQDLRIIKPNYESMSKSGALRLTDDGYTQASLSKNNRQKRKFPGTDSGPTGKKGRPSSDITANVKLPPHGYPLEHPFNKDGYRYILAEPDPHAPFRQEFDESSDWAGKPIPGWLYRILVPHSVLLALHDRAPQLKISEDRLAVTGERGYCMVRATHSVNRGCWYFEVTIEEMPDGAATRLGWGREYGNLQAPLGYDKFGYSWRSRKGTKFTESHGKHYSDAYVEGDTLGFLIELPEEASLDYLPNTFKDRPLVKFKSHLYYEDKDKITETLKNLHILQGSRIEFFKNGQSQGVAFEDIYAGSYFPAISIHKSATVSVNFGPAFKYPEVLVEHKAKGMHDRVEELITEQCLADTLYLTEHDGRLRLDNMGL

The target of assay [1] is T1, HCF-Flag (host-cell factor, Drosophila), expressed in S2 cells (Drosophila) (UniProt Q9V4C8).
T1 sequence: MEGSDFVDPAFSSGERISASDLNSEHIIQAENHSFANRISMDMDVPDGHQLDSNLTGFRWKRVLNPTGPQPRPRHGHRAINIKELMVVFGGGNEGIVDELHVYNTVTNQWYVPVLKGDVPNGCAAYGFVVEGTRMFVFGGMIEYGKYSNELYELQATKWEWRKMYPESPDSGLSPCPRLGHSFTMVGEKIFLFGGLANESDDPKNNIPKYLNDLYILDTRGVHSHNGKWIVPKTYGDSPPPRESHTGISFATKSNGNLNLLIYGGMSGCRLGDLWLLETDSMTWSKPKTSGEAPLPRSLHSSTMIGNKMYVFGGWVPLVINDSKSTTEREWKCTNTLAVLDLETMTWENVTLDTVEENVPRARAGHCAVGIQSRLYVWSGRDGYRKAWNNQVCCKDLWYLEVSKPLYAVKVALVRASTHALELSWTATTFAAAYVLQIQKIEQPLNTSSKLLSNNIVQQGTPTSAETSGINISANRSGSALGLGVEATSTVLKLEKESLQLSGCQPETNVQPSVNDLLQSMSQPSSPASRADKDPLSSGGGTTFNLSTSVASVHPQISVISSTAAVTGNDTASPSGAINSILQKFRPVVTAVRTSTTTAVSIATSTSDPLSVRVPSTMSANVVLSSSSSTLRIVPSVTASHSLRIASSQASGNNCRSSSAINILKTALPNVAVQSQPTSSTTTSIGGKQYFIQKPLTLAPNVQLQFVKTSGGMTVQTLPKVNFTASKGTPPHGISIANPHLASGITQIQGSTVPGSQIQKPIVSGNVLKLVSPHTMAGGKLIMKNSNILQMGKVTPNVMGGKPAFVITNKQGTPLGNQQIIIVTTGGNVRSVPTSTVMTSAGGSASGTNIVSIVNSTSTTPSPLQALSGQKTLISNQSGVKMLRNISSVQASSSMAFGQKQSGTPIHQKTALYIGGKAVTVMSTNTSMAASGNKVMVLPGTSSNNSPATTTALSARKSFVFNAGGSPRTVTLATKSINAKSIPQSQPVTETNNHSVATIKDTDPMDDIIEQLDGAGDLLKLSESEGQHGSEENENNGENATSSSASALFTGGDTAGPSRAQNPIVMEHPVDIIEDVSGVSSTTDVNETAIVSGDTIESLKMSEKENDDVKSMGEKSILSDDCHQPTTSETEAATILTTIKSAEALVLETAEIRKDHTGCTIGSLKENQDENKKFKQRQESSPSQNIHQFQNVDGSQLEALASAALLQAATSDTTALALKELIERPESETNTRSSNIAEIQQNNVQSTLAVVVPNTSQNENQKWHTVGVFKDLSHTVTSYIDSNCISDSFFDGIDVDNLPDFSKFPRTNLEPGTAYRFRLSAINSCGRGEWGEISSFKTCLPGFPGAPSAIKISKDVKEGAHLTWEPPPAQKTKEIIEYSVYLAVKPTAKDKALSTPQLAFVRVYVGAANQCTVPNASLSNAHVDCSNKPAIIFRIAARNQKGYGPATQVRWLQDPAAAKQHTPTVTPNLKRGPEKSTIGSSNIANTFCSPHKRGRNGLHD
Nature of the assay: co-IP; S2 cells co-transfected with HCF-Flag and ASH2-V5; anti-Flag M2 beads, blot anti-V5; lysis 50 mM Tris HCl pH 7.4, 150 mM NaCl, 1 mM EDTA, 1% Triton X-100; second wash 300 mM NaCl; 4°C.

The target of assay [2] is ASH2-HA (Drosophila), overexpressed in transgenic embryos (Drosophila) (UniProt Q94545). Nature of the assay: co-IP; extract of 0-16 h transgenic embryos overexpressing ASH2-HA (da-Gal4); anti-HA affinity matrix; 50 mM Tris pH 8, 200 mM NaCl, 5 mM EDTA, 0.5% NP40; wt embryos as negative control.

No constants are given. Whether binding was seen depends on the method and setting. Binding seen in cells or lysates may run through a third protein. Some entries that bind do so weakly or less than the wild type. For some assays here: Tags and fused reporters may be left off the sequences shown.

Take “ASH2-V5 (absent, small or homeotic discs 2, Drosophila), expressed in S2 cells (from UniProt Q94545 1-556)”: the binding entry in assay [1] is given as “binds”.

B1: HCF (host-cell factor), endogenous in Drosophila embryos (protein, UniProt Q9V4C8 1-1500)
chain: T1 sequence
B1: the binding result in assay [2] is “binds”.
